The nature of this assay: qHTS Assay for Modulators of Lamin A Splicing. The settings on record: HeLa LMNA splicing GFP/RFP minigene ratio, 48 h. The essentials: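 Read-out is the ratio of GFP to DsRed2 object intensity, acquired by 488 nm laser-scanning cytometry on HeLa lamin A-EGFP minigene reporter cells. Compound incubation 48 hrs at 37 °C in Opti-MEM with 2% FBS; DMSO 0.5% final.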
(In qHTS, concentration-response curves come from the screen itself.)

The mark [1] stands for this setting: measured here: RFP viability control channel.
Setting [2] is: measured here: GFP splicing reporter channel.

Several values for one entry are separate records, joined by “and”; a condition that tells them apart may be missing. Identical values can stand only once. This is one part of the list. Further columns of the screen follow, without active or inactive calls. Most of these compounds were active or inconclusive in the main read-out, so they are no random draw. Potencies come from curve fits of mixed quality, noted in brackets.

Broadly, the AC50 is the midpoint of the concentration-response curve, whichever way the signal moves. For `Cc1cc(C)cc(-n2nnnc2SCC(=O)Nc2cccc(NC(=O)c3ccco3)c2)c1`, the AC50 under setting [1] was 14.1 µM [rising, single point].
Regarding `Cc1ccc(C)c(NC(=O)Cn2cnc3c(oc4ccccc43)c2=O)c1`, the half-maximal activity concentration (AC50) under setting [2] is 8.91 µM [rising, partial curve, poor fit].
In the case of `COc1ccc(CCNC(=O)Cn2cc(C(F)(F)F)cc(Cl)c2=O)cc1`, the AC50 under setting [2] was 0.0501 µM [rising, full curve, poor fit].
`CCc1ccc(C2=CC(c3cccc(C)c3)n3c(nc4ccccc43)N2)cc1` (stereo not given): the AC50 under setting [2] was 7.08 µM [rising, partial curve] and the AC50 under setting [1] is 22.4 µM [rising, single point].
Turning to `Cc1ccc(/C=C/C(=O)N2CCN(c3ccc(F)cc3)CC2)o1`, the concentration at half-maximal activity (AC50) under setting [2] was 12.6 µM [rising, partial curve] and the AC50 under setting [1] is 14.1 µM [rising, partial curve].
For the compound `CC(C)(C)c1ccc(-c2noc(CCC(=O)NCC3CCCO3)n2)cc1` (stereo not given), the AC50 under setting [2] is 12.6 µM [rising, single point] and the AC50 under setting [1] is 22.4 µM [rising, single point].
On to `O=[N+]([O-])c1c(NCCO)cc(N2CCN(Cc3ccc4c(c3)OCO4)CC2)c2nonc12`, for which the AC50 under setting [1] was 28.2 µM [rising, single point].
On the same count and under the same terms, for `COc1cccc(/C=C/C(=O)N2CCN(c3n[nH]c(=O)[nH]c3=O)CC2)c1OC` the value was 14.1 µM [rising, partial curve, poor fit].
For `NC(=O)C1CCN(C(=O)N2c3ccccc3Sc3ccccc32)CC1`, under setting [1], the AC50 is 35.5 µM [rising, single point].
On the same count and under the same terms, the result for `CCc1ccc2oc(C(=O)NCC(c3ccc(Cl)cc3)N3CCOCC3)c(C)c2c1` (stereo not given) reads 12.6 µM [rising, single point].
In the case of `CCOC(=O)c1c(C)oc2nc(C)nc(Nc3cc(C)cc(C)c3)c12`, the AC50 under setting [2] is 0.0398 µM [falling, full curve].
As to `COc1ccc2cc(C(=O)C3CCCN(C(=O)/C=C/c4ccccn4)C3)ccc2c1` (stereo not given), the AC50 under setting [1] was 0.562 µM [falling, full curve, poor fit].
As for `O=C1CCC(c2ccc(-n3ccnc3)cc2)=NN1`, the AC50 under setting [2] was 0.708 µM [rising, full curve, poor fit].
`Cc1cccc(Nc2nc(N)nc(CN3CCN(Cc4ccc5c(c4)OCO5)CC3)n2)c1`: the AC50 is 17.8 µM [rising, partial curve, poor fit] under setting [2] and 12.6 µM [rising, single point] under setting [1].
Turning to `COCCn1c(=NC(=O)/C=C/c2ccccc2)sc2cc(NC(C)=O)ccc21`, the AC50 under setting [1] was 0.00447 µM [rising, full curve, poor fit].
Same read-out and setting: the result for `S=C(NCc1ccco1)N1CCN(c2ccccn2)CC1` reads 0.0112 µM [falling, full curve, poor fit].
As to `Cc1ccc(-c2nc(N)sc2-c2ccc(C)cc2)cc1`, the AC50 reads like this: under setting [2], 22.4 µM [falling, partial curve, poor fit]; under setting [1], 35.5 µM [falling, partial curve, poor fit].
With `COc1ccc(C(=O)c2cnc3cc4c(cc3c2C)OCO4)cc1`, the AC50 under setting [1] was 22.4 µM [rising, single point].
The same measure, in the same setting: for `Cc1sc2nc(CN3CCOCC3)[nH]c(=S)c2c1C` the value was 5.62 µM [rising, single point].
Turning to `Cn1c(=O)c(-c2ccccc2)c(O)c2ccccc21`, the half-maximal activity concentration (AC50) under setting [2] is 0.794 µM [rising, full curve, poor fit] and the AC50 under setting [1] was 0.708 µM [rising, full curve].
Regarding `COC1=C(OC)C(=O)C(CCCCCCCCCCO)=C(C)C1=O`, the AC50 is, setting by setting: under setting [2], 20 µM [falling, partial curve, poor fit] and 17.8 µM [falling, partial curve]; under setting [1], 31.6 µM [falling, partial curve, poor fit] and 22.4 µM [falling, partial curve, poor fit].
In the case of `CC(C)(C)c1ccc(/C=N/NC(=S)NC2CCCCC2)cc1`, the concentration at half-maximal activity (AC50) was 12.6 µM [rising, partial curve] under setting [2] and 20 µM [rising, partial curve] under setting [1].
For the compound `O=C(c1ccc(CS(=O)(=O)c2cccc(C(F)(F)F)c2)o1)N1CCN(c2ccccn2)CC1`, the AC50 under setting [1] is 10 µM [rising, partial curve, poor fit].
Same read-out and setting: the result for `C(#Cc1ccc(C#CCN2CCCC2)cc1)CN1CCCC1` reads 3.55 µM [rising, full curve, poor fit].
On to `FC(F)(F)c1nnc2c(Sc3ccc(Cl)cc3)nc3ccccc3n12`, for which the AC50 by setting is: under setting [2], 5.01 µM [falling, full curve]; under setting [1], 6.31 µM [falling, full curve].
For `CCN(CC)S(=O)(=O)c1ccc(N2CCOCC2)c(NC(=O)Cc2ccccc2F)c1`, the AC50 under setting [1] was 5.01 µM [rising, single point].
Same read-out and setting: the result for `O=C(Nc1ccccc1Cl)c1ccc(F)c(S(=O)(=O)NCc2ccc(Cl)c(Cl)c2)c1` reads 35.5 µM [rising, single point]; that for `Cc1ccc(N2C(=O)C3C4C=CC(CNC(=S)N5CCN(c6cccc(C)c6)C(C)C5)(O4)C3C2=O)cc1` (stereo not given), 5.01 µM [rising, partial curve, poor fit]; that for `OB(O)O`, 0.0447 µM [rising, full curve, poor fit].
For `Cc1c(C(=O)c2ccccc2)c2ccccn2c1CCc1ccccn1`, under setting [2], the AC50 was 0.112 µM [falling, full curve, poor fit].
Take `CCOc1ccc2nc(NC(=O)CN3CCN(c4ccccn4)CC3)sc2c1`: under setting [1], the AC50 is 14.1 µM [rising, partial curve].
In the case of `CN(C(=O)CSc1nnc(-c2cccs2)o1)C1CCS(=O)(=O)C1` (stereo not given), under setting [2], the AC50 was 6.31 µM [rising, partial curve, poor fit].
As for `CN(C)/C=C/C(=O)c1nnn(C2CCCCC2)c1NC1CCCCC1`, the AC50 reads like this: under setting [2], 14.1 µM [rising, partial curve]; under setting [1], 15.8 µM [rising, partial curve].
For `CCCn1c(SCC(=O)Nc2cccc(NC(C)=O)c2)nnc1C(C)C`, the AC50 by setting is: under setting [2], 15.8 µM [rising, single point]; under setting [1], 25.1 µM [rising, single point].
Consider `CCOc1ccc(NC(=S)Nc2cccc3cnccc23)cc1`, for which the AC50 under setting [1] was 5.62 µM [rising, full curve].
Regarding `Cc1ccc(OCCOc2cccc(Br)c2)c([N+](=O)[O-])n1`, the half-maximal activity concentration (AC50) under setting [2] is 14.1 µM [rising, single point] and the AC50 under setting [1] is 25.1 µM [rising, single point].
Consider `O=C(Cn1nnc(-c2ccc(Cl)cc2)n1)NC1CC2CCC1C2` (stereo not given), for which the AC50 under setting [1] is 14.1 µM [rising, single point].
For `COc1ccc(C2CC(c3ccccc3)=NN2c2ccc(N)cc2)cc1` (stereo not given), the AC50 runs as follows: under setting [2], 35.5 µM [rising, single point]; under setting [1], 14.1 µM [rising, single point].
Regarding `CCc1ccc(NC2CC(=O)N(CCc3ccc(OC)c(OC)c3)C2=O)cc1` (stereo not given), the AC50 under setting [2] is 2.24 µM [rising, single point].
As for `CC1CCN(S(=O)(=O)c2ccc3c(ccc(=O)n3CC(=O)NCc3ccccc3)c2)CC1`, the AC50 is, setting by setting: under setting [2], 10 µM [falling, partial curve]; under setting [1], 28.2 µM [falling, partial curve].
With `COc1ccccc1NC(=O)C1=C(C)Nc2nnnn2C1c1cc(Br)ccc1OC` (stereo not given), the AC50 under setting [2] was 35.5 µM [falling, single point].
Consider `CC1CCCCC1NC(=O)/C(C#N)=C/c1ccc(F)c(F)c1` (stereo not given), for which the AC50 runs as follows: under setting [2], 14.1 µM [rising, single point]; under setting [1], 25.1 µM [rising, single point].
For the compound `Cc1ccc(C)c(NC(=O)CSc2nnc(NC(=O)Nc3ccccc3)s2)c1`, the AC50 under setting [1] was 12.6 µM [falling, partial curve, poor fit].
For the compound `Clc1ccccc1-c1nccc(NCc2ccccc2)n1`, under setting [2], the AC50 was 11.2 µM [falling, partial curve].
Turning to `C=C1C(=O)OC2C[C@@]3(C)CCCC(C)C3=CC12` (stereo not given in full), the AC50 is 3.55 µM [falling, full curve] under setting [2] and 7.08 µM [falling, partial curve] under setting [1].
On to `CCN1CCN(Cc2nc3cc(NC(=O)c4cccc([N+](=O)[O-])c4)ccc3n2CC)CC1`, for which the AC50 under setting [2] is 0.178 µM [falling, full curve, poor fit].
Consider `CS(=O)(=O)Nc1ccc(Cc2ccc(NS(C)(=O)=O)cc2)cc1`, for which, under setting [1], the AC50 is 15.8 µM [rising, single point].
Still for that read-out and setting: for `Cc1cccnc1Nc1nc(-c2ccccn2)cs1` the value was 0.891 µM [rising, full curve]; for `O=C(N/N=C\c1cccc(Cl)c1)c1n[nH]c2c1CCCC2`, 15.8 µM [rising, partial curve, poor fit].
With `Brc1ccc(-c2nnc3n2-c2ccccc2CC3)cc1`, the concentration at half-maximal activity (AC50) under setting [2] is 12.6 µM [rising, single point].
For the compound `Cc1cc(/C=C2\SC(=S)N(Cc3ccco3)C2=O)c(C)n1-c1ccccc1`, the AC50 by setting is: under setting [2], 6.31 µM [rising, partial curve]; under setting [1], 15.8 µM [rising, partial curve].
On to `COc1ccccc1CCn1c(=O)c(-c2cccs2)nc2cncnc21`, for which the AC50 under setting [2] is 10 µM [falling, partial curve].
Take `COc1cc([N+](=O)[O-])ccc1NC(=O)Cc1ccccc1`: the AC50 under setting [1] was 11.2 µM [falling, partial curve].
Same read-out and setting: the result for `Cc1cccc(-c2nc(C#N)c(NC3CCCCC3)o2)c1` reads 14.1 µM [rising, single point].
With `N#C/C(=C\c1ccc(N2CCCCC2)o1)C(N)=O`, the AC50 under setting [1] was 35.5 µM [falling, single point].
Regarding `O=C(c1ccc(Cl)cc1)N1CCC(c2nc(-c3cccs3)no2)CC1`, the AC50 is, setting by setting: under setting [2], 15.8 µM [rising, single point]; under setting [1], 35.5 µM [rising, single point].
Take `OCc1cn(-c2ccccc2)nc1-c1ccc2c(c1)OCCO2`: the AC50 under setting [1] was 35.5 µM [rising, single point].

These data come from PubChem BioAssay AID1487 (National Center for Advancing Translational Sciences (NCATS), 2009).
